Some results come without the dose or concentration used.

The nature of this data set: Sensory evaluation of the pigment dispersions on the forearm. As to conditions: Black Iron Oxide dispersion on the forearm, scale from 1 (low) to 5 (high). The data set is classed as in vivo.
`CC(C)CCCCCCOC(=O)CCCCCC(C)C` [Isononyl Isononanoate, reference compound] registered a Film evennes of 2 and a Writing capability/color intensity of 2.

On to `CCCCCCCCC(=O)OCC(COC(=O)CCCCCCCC)OC(=O)CCCCCCCC` [Glycerol tripelargonate], for which the Film evennes is reported as 4 and the Writing capability/color intensity was found to be 4.

In turn, `CCCCCCCCC(=O)OCC(C)(C)COC(=O)CCCCCCCC` [Neopentyl glycol dipelargonate] came in with a Film evennes of 4 and a Writing capability/color intensity of 3.

Consider `CCCCCCCCC(=O)OCC(COC(=O)CCCCCCCC)(COC(=O)CCCCCCCC)COC(=O)CCCCCCCC` [Pentaerythritol tetrapelargonate], for which the Film evennes is given as 4 and the Writing capability/color intensity stood at 4.

Values taken from patent publication US12083202B2, “Lipophilic cosmetic compositions containing pelargonic acid esters” (Novamont S.p.A., priority 2015, dated 2024).
